This test can be described thus: qHTS Assay for Lipid Storage Modulators in Drosophila S3 Cells.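 As to cell number change: cells counted by Cell Tracker Red CMTPX staining in the red channel.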 As to conditions: BODIPY lipid droplet fluorescence, 18-24 h; for cell number change: measured here: cell count max response, cells fed with added oleic acid. In outline: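 Laser-scanning cytometry quantifies lipid droplet accumulation (500–530 nm total intensity; droplet/cell object ratio) in oleic acid-fed (400 uM added) Drosophila S3 cells treated with a concentration series. 20 uM Triacsin C defined 100% inhibition.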
(Quantitative high-throughput screening tests each substance at several concentrations.)

The mark [1] stands for this setting: measured here: cell number channel AC50, cells fed with added oleic acid.
[2] abbreviates: measured here: lipid fluorescence (Fed channel) AC50, cells fed with added oleic acid.

Some of the results follow. These are further read-outs of the screen, such as a control signal, another cell line or another target. No call is given for them. The list favours compounds with an active or inconclusive main result. Words in brackets tell the shape of the fitted curve; partial curves, single points and poor fits give uncertain potencies.

Broadly, the AC50 is the concentration giving half of the maximal activity seen. For the compound `Cc1ccc(NC(=O)c2nc[nH]c2C(=O)NCc2ccccc2)cc1`, the cell number change was -61.8%. Besides, the AC50 under setting [1] is 25.9 µM [falling, single point]. For the same compound, the AC50 under setting [2] was 0.146 µM [falling, single point].

Regarding `CCC1Oc2ccc(C)cc2N(CC(=O)NCCCN2CCCC2)C1=O` (stereo unspecified), the cell number change is 38.9%.

Regarding `O=C(Cn1nc(Cc2cccnc2)c2ccccc2c1=O)NCc1ccc2c(c1)OCO2`, the AC50 reads like this: under setting [1], 0.0517 µM [rising, full curve]; under setting [2], 0.82 µM [rising, full curve]. As for `CCOc1ccc(NC(=O)CN(C)C(=O)c2nc3nc(C)cc(C)n3n2)cc1OCC`, the cell number change came out at 0.556%. Further, under setting [2], the AC50 was 9.2 µM [rising, single point]. With `Cc1cc2c(cc1C)C(=O)NC(C)(C)C2`, the cell number change turned out to be 116%. Further, the AC50 under setting [1] is 20.6 µM [rising, single point].

Consider `O=C(NCC1CCCN1S(=O)(=O)c1cccs1)C(=O)Nc1cccc(F)c1` (stereo unspecified), for which the AC50 under setting [1] is 3.26 µM [rising, single point]. In the case of `CCn1c(SCC(=O)NC2CCCCC2)nc2c(c1=O)SCC2`, the cell number change was 11.1%. The AC50 under setting [2] is 18.4 µM [rising, partial curve].

Consider `COC(=O)COc1cc(Cl)c(C=O)cc1OC`, for which the cell number change is -32.2%. Besides, the AC50 under setting [1] is 1.84 µM [falling, partial curve]. Consider `O=C(CSc1ccc(-c2nc3ccccc3[nH]2)cn1)Nc1ccc2c(c1)OCCO2`, for which the cell number change was -55%. For the same compound, under setting [1], the AC50 was 32.6 µM [falling, single point]. The AC50 under setting [2] was 20.6 µM [falling, single point]. Regarding `COC(=O)c1cc(S(=O)(=O)N2CCN(c3cccc(OC)c3)CC2)cn1C`, the cell number change turned out to be 10.2%. The AC50 under setting [2] was 0.517 µM [rising, single point].

Turning to `CCc1ccc(NC(=O)CSc2nc3ccccc3nc2N2CCCCC2)cc1`, the AC50 under setting [2] was 14.6 µM [falling, single point]. For `CCN1CCN(C(=O)c2ccc(OCC(=O)Nc3ccc(F)cc3)c(OC)c2)CC1`, the cell number change was -6.68%. Under setting [1], the AC50 is 6.51 µM [falling, single point]. The AC50 under setting [2] was 5.8 µM [falling, partial curve, poor fit].

Regarding `CCn1nc(NC(=O)C2CCCO2)c2cc3cccc(C)c3nc21` (stereo unspecified), the cell number change was determined as 36.6%. Moreover, the AC50 under setting [1] is 11.6 µM [rising, single point]. Regarding `O=C1CCN(Cc2ccccc2)CCN1[C@H](CO)Cc1ccccc1`, the cell number change worked out at 20.4%. In addition, the AC50 under setting [2] is 0.58 µM [falling, single point]. As to `O=S1(=O)N=C2CCCCCN2C(c2ccc(Br)cc2)N1` (stereo unspecified), the cell number change was -41.3%. Further, the AC50 under setting [1] is 0.164 µM [falling, full curve, poor fit].

Turning to `O=C(Nc1ccc(F)c(Cl)c1)C1CCCN(c2cnccn2)C1` (stereo unspecified), the cell number change came out at 50.2%. In addition, the AC50 under setting [1] was 29.1 µM [rising, single point]. On to `O=C(Cn1c(=O)oc2cc(S(=O)(=O)N3CCc4ccccc43)ccc21)NC1CCCC1`, for which the cell number change was determined as 42.7%. Besides, the concentration at half-maximal activity (AC50) under setting [1] was 20.6 µM [rising, single point]. As to `Cc1cc(/C=C2/NC(=O)N(c3ccccc3)C2=O)c(C)n1C(C)C`, the cell number change came out at 5.14%. For the same compound, under setting [2], the AC50 was 2.91 µM [rising, full curve]. Turning to `O=C(c1ccccc1)c1ccc(OC(=O)N2CCOCC2)cc1`, the cell number change was -34.1%. For the compound `CCN(c1cccc(C)c1)S(=O)(=O)c1ccc(-c2coc(C)n2)cc1`, the cell number change amounted to 3.98%. The AC50 under setting [2] is 2.31 µM [rising, full curve, poor fit].

Take `C=CCNc1oc(-c2cccc3ccccc23)nc1C#N`: the AC50 under setting [2] was 0.231 µM [rising, full curve, poor fit]. For `O=C(N/N=C/c1ccc(N2CCOCC2)o1)c1cccc(F)c1`, the cell number change was -40.3%. Besides, under setting [1], the AC50 was 23.1 µM [falling, single point]. For the same compound, the AC50 under setting [2] was 23.1 µM [falling, single point]. Take `CC(CN1CCOCC1)OC(=O)c1cccc(Cl)c1` (stereo unspecified): the cell number change was -20.1%.

For `Cc1ccc(C)c(NC(=S)N2CCCCC2CO)c1` (stereo unspecified), the cell number change is 25.5%. Also, the AC50 under setting [1] is 0.0231 µM [falling, full curve, poor fit]. In addition, under setting [2], the AC50 was 0.116 µM [falling, full curve, poor fit]. For `CC(=O)OC1COC(n2c(O)c(N=NC(N)=S)c3ccccc32)C(OC(C)=O)C1OC(C)=O` (stereo unspecified), the cell number change was -22%. Under setting [2], the AC50 was 6.51 µM [falling, full curve]. For `COc1cc(CNCc2cccnc2)ccc1OCC(=O)NC1CCCCC1`, the cell number change was -7.34%. The AC50 under setting [2] was 18.4 µM [falling, single point]. `Cn1cc(-c2ccno2)c(C(=O)O)n1`: the cell number change turned out to be 48.2%. In addition, under setting [1], the AC50 is 29.1 µM [rising, single point]. As to `Cc1cccc(C)c1NC(=O)CN1CCN(C(=O)CNC(=O)c2ccc(N3CCCC3=O)cc2)CC1`, the cell number change worked out at 8.12%. For the same compound, the AC50 under setting [2] was 1.46 µM [rising, partial curve]. Consider `COc1ccc(NC(=O)CCS(=O)(=O)c2ccc(Br)s2)cc1`, for which the cell number change came to 22.6%.

As to `COc1ccccc1C(=O)NCC(=O)N/N=C(\C)Cc1ccccc1`, the cell number change came to 11.3%.

With `C/C(N)=C(/C#N)C(=O)CSc1nc2ccccc2c(=O)n1-c1ccccc1C`, the cell number change came to 21.5%. The AC50 under setting [2] was 20.6 µM [rising, single point]. As to `CCCc1cc(=O)oc2cc(OCC(=O)Nc3ccc(S(N)(=O)=O)cc3)ccc12`, the cell number change is 33.2%.

With `Cc1csc(-c2cccnc2)n1`, the cell number change amounted to 8.5%. Also, the AC50 under setting [2] is 3.26 µM [rising, single point].

Turning to `Cn1c(=O)c2ccccc2n(Cc2cccc(F)c2)c1=O`, the cell number change was -6.87%. Besides, under setting [2], the AC50 was 20.6 µM [falling, single point]. Consider `CCC(C)n1c(-c2cccs2)nc2nc3ccccc3nc21` (stereo unspecified), for which the cell number change came to 3.61%. In addition, under setting [1], the AC50 was 0.164 µM [rising, full curve, poor fit]. On to `Cc1cc(C(C)(C)C)ccc1OCCN1CCCC1`, for which the cell number change amounted to 4.59%. On the same count and under the same terms, to `CCc1ccc2nc(N3C(=O)c4oc5ccccc5c(=O)c4C3c3ccc(OC)c(OC)c3)sc2c1` (stereo unspecified) belongs -11.6%; to `COc1ccc(-c2cc(C(=O)N3CCc4ccccc4C3)no2)cc1OC`, -24.1%.

Turning to `Cc1ccsc1/C=C(\C#N)C(=O)NCc1ccco1`, the cell number change is -37.4%. Also, the AC50 under setting [1] was 0.00731 µM [falling, full curve, poor fit]. In addition, the AC50 under setting [2] is 0.116 µM [rising, full curve]. With `O=C(c1ccc(F)cc1F)N1CCN(c2ncccn2)CC1`, the cell number change is -13.8%. Besides, the half-maximal activity concentration (AC50) under setting [2] was 1.84 µM [falling, partial curve, poor fit]. In the case of `COc1ccc(-c2csc(-c3ccccc3)n2)c(OC)c1`, the cell number change is -14.9%. For the same compound, the AC50 under setting [1] was 0.058 µM [falling, full curve, poor fit].

For the origin of these results see PubChem BioAssay AID2685 (National Center for Advancing Translational Sciences (NCATS), 2010).
